Results from PMC3973600.
Results are given in words; binding and its absence hold for the method and conditions named. Some results given as binding are weak or reduced against the parent protein; the word gives no strength.

Target: T1, M. huakuii 7653R BacA protein (Mesorhizobium huakuii 7653R) (UniProt C0J8B6)
T1 sequence: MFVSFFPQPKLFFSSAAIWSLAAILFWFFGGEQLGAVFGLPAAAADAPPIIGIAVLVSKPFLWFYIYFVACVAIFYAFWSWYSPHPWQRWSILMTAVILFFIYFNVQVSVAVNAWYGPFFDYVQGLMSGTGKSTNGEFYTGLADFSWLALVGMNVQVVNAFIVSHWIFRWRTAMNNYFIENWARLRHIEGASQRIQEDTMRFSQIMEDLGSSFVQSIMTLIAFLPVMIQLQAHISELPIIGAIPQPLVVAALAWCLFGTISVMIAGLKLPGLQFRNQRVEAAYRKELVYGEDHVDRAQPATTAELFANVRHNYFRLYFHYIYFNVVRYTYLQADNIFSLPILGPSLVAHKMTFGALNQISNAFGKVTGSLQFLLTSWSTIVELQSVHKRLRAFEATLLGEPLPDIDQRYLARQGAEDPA
Experiment: two-hybrid; bacterial two-hybrid system; 'in a parallel study', data not shown; no further details

B1: M. huakuii 7653R TypA protein (protein, UniProt A0ABZ0VYW2 1-609)
chain: MKLRNIAIIAHVDHGKTTLVDQLLKQSGSFRDNQRVAERAMDSNDLEKERGITILAKATSVDWKDTRINIVDTPGHADFGGEVERILSMVDSAIVLVDAAEGPMPQTKFVVGKALKVGLKPIVVINKIDRPDARHVEVVNEVFDLFAALDATDEQLDFPILYGSGRDGWVSENPEGPKDQQLAPLFDLVIKHVPAPTVHPGPFRMIGTILEANPFLGRIITGRIESGTLKANQAVKVLHHDGTQIETGRISKILAFRGLERQPIEEAQAGDIVAIAGLSKGTVADTFCDLAVTEALHAQPIDPPTVTMSFLVNDSPLAGTEGDKVTSRVIRDRLLREAEGNVALKIEESPDKDSFFVSGRGELQLAVLIETMRREGFEIAVSRPRVVMQKGENGELLEPVEEVVIDVDEEHAGVVVQKMSERKAEMVELRPSGGNRQRIVFHAPTRGLIGYQSELLTDTRGTAVMNRLFHAYEPYKGELPGRTNGVLISNEQGESVAYAMWNLEDRGPMVIDPGVKVYQGMIIGIHSRDNDLEVNVLKGKKLTNIRAAGKDEAVKLTPPIRMTLERALAWIQDDELVEVTPKTIRLRKLYLDPNERKRFEKSSKAVGAA
binding: binds
